In the supplement of paper PMC11732987, “Enantioselective OTUD7B fragment discovery through chemoproteomics screening and high-throughput optimisation” (Communications Chemistry, 2025):
This is one part of the list. The data scatter; read single values as rough.

Biological target: T1, LMNA C570 (UniProt P02545)
T1 sequence (whole entry): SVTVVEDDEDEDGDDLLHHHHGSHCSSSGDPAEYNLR
Assay: log2 mean competition ratio of IA-DTB cysteine labelling (DMSO/compound) (log2 ratio); higher = stronger cysteine engagement by compound
Conditions: 50 µM; treatment time: 4 h; cell line lysate: HEK293T
Description: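 IA-DTB competitive cysteine chemoproteomics in HEK293T RIPA lysate. Lysates were treated with compound 29 or 30 at 50 or 200 µM for 4 h, then IA-DTB (500 µM, 1 h), trypsin-digested, NeutrAvidin-enriched and analysed by diaPASEF. Competition ratio = intensity DMSO / intensity compound (n=4 treated, n=64 DMSO); binding: mean log2 CR ≥ 1 and p ≤ 0.05 plus QC filters. Target is the cysteine site.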

SMILES	log2 mean competition ratio
O=C(CCl)N[C@@H]1CCCc2ccccc21	-0.365
O=C(CCl)N[C@H]1CCCc2ccccc21	0.256

Same assay, conditions: 200 µM; treatment time: 4 h; cell line lysate: HEK293T

SMILES	log2 mean competition ratio
O=C(CCl)N[C@@H]1CCCc2ccccc21	0.913
O=C(CCl)N[C@H]1CCCc2ccccc21	-0.307
